# About 17,000 (5.5%) of roughly 310,000 compounds were called active. This list was built around the results that the source calls inconclusive (neither active nor inactive); the mix of calls is not that of the screen. The call rests on the fitted dose curve; in most records, active means well fitted inhibition curve with a large enough effect; inconclusive means small, poorly fitted or top-dose-only effect, or effect the other way; inactive means no such curve, though single readings can be large or run the other way. Potencies beside an inconclusive call are fits to weak or partial responses and may not hold up.
# By UniProt entry, the sequences of proteins in these tests, tags left out. Where a name states a change or a piece, a line headed by the entry shows the natural chain unless it says otherwise.
# UniProt P51450: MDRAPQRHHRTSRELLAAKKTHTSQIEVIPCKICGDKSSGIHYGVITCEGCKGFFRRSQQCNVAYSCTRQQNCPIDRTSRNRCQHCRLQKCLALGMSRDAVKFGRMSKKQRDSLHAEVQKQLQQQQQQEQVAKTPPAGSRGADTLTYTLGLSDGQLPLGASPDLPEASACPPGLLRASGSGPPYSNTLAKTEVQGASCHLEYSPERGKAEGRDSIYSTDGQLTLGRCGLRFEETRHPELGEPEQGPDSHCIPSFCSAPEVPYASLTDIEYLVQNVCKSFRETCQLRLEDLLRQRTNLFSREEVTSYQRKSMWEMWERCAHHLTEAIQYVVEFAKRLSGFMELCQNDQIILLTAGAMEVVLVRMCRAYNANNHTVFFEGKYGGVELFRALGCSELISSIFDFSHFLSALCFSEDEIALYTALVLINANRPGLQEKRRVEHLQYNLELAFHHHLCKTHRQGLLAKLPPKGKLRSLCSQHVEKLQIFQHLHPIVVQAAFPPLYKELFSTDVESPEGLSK
# Target: Nuclear receptor ROR-gamma (Mus musculus) (UniProt P51450)
# Experiment: qHTS for inhibitors of ROR gamma transcriptional activity; further: nearly all actives have a fitted effect of over 60% in size
# Settings: Drosophila S2 Gal4-RORgamma UAS-luciferase reporter, 20 h; activity change, negative = inhibition: at 53.6 µM (top of the series)
# Procedure, shortened: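 Stably transfected Drosophila Schneider cells are the test system, with ROR gamma fused to Gal4 and luciferase under UAS control; luminescence is read after 20 hr of 700 uM copper sulfate induction at ambient temperature.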
# On the % scale 0 is the no-effect control and ±100 the full control effect; potency means the concentration at half of the fitted maximal effect.
Structure (SMILES),Potency,"activity change, negative = inhibition"
COc1ccc(-c2csc(NC(=S)NC(=O)/C=C/c3ccco3)n2)cc1OC,active: 7.94 µM,
C#CCOCCOCCOCCNc1nc(N2CCN(C(=O)[C@H](CCC(=O)O)n3cc(C(N)Cc4ccc(O)cc4)nn3)CC2)nc(N2CCN(C(=O)[C@H](Cc3ccc(O)cc3)n3cc(C(N)[C@H](C)CC)nn3)CC2)n1 (stereo not given in full),"inconclusive: 0.0056 µM [activator, full curve, poor fit]",
COc1ccc(NC(=O)c2ccccc2SC)cc1OC,,inactive: 41.2%
Cc1cccc(NC(=O)CCNC(=O)c2ccccc2)c1,"inconclusive: 14.1 µM [activator, partial curve]",
CNC(=S)N/N=C/c1ccc2c(c1)OCCO2,"inconclusive: 4.47 µM [inhibitor, single point]",
O=C1C2C3C=CC(C4CC34)C2C(=O)N1/N=C/c1ccc(-c2ccc(Cl)cc2[N+](=O)[O-])o1 (stereo not given),,inactive: 25.9%
CN(C)c1ccc(C(=C2C=CC(=[N+](C)C)C=C2)c2ccc(N(C)C)cc2)cc1,active: 1.12 µM,
CC(=O)c1c(C(C)=O)c(C)n(NC(=O)c2ccccc2Cl)c1C,,inactive: 18%
CC(C)OCCCn1c(-c2ccc(Br)cc2)c[nH]c1=S,active: 1 µM,
O=[N+]([O-])c1cc(S(=O)(=O)NCCN2CCOCC2)ccc1Sc1nnnn1-c1ccccc1,active: 11.2 µM,
Cc1cccc(NC(=O)CSc2nnc(CCC(=O)Nc3ccc(C)c(Cl)c3)n2C)c1,"inconclusive: 35.5 µM [inhibitor, single point]",
COc1ccc(N=Cc2[nH]c3ccccc3c2O)cc1,,inactive: -24.3%
COc1ccc(/C=N/Nc2cc(C)nc3ccc(OC)cc23)c(OC)c1,active: 11.2 µM,
Cn1cc(/C=C(\NC(=O)c2ccccc2Cl)C(=O)NCCN2CCOCC2)c2ccccc21,,inactive: -14.6%
Cc1ccc(N2CN(CCC3=CCCCC3)CNC2=S)cc1,active: 0.562 µM,
O=[N+]([O-])c1ccc(O)c(CN2CCCCCC2)c1,,inactive: -15.8%
CCC(=O)c1ccc2c(c1)N(CCCN1CCN(CCO)CC1)c1ccccc1S2,"inconclusive: 5.01 µM [inhibitor, partial curve, poor fit]",
O=C(Cn1c2ccccc2c(=O)c2ccccc21)N/N=C/c1cc([N+](=O)[O-])ccc1N1CCCCC1,,inactive: 1.26%
O=C(Cc1cccs1)NCc1ccccc1F,"inconclusive: 0.224 µM [activator, single point]",
COc1ccc(NC(C#N)c2ccccc2OCc2ccccc2)cc1 (stereo not given),"inconclusive: 14.1 µM [activator, single point]",
O=C(/C=C/c1cnc2ccccc2n1)NC12CC3CC(CC(C3)C1)C2,"inconclusive: 14.1 µM [inhibitor, single point]",
Cc1ccc2[nH]c3c(NCc4ccccc4)ncnc3c2c1,"inconclusive: 12.6 µM [inhibitor, single point]",
S=C(NCc1ccc2c(c1)OCO2)NCc1ccc2c(c1)OCO2,active: 15.8 µM,
COC(=O)C1=CN(Cc2cccs2)C=C(C(=O)OC)C1c1cccc(OC)c1OC,,inactive: -0.895%
COc1ccc(N2C(=O)/C(=C\c3ccco3)N=C2SCC(=O)NC(C)C)cc1Cl,"inconclusive: 11.2 µM [activator, partial curve]",

Structure (SMILES),Potency,"activity change, negative = inhibition"
FC(F)(F)c1ccccc1NC(=S)N1CCc2ccccc2C1,active: 15.8 µM,
COc1ccc(/C=C/c2nc(-c3ccccc3O)n[nH]2)cc1,"inconclusive: 22.4 µM [inhibitor, single point]",
O=C(NCc1cn2ccccc2n1)c1ccc(Br)o1,"inconclusive: 1.12 µM [activator, partial curve]",
Cc1cccc(C)c1Nc1ncnc(N)c1[N+](=O)[O-],"inconclusive: 8.91 µM [inhibitor, partial curve, poor fit]",
CCN(CC)C(=O)CNc1ccc(C(F)(F)F)cc1[N+](=O)[O-],,inactive: -0.49%
O=c1[nH]cc(N=Cc2cc(Cl)cc(Cl)c2O)c(=O)[nH]1,active: 11.2 µM,
CCSc1n[nH]c2nc3c(c(=O)n12)C1(CCCC1)Cc1ccccc1-3,active: 14.1 µM,
Oc1c(Cl)cc(Cl)cc1C=Nc1cc(C(F)(F)F)ccc1N1CCc2ccccc2C1,"inconclusive: 31.6 µM [inhibitor, single point]",
COC(=O)c1ccc(COC(=O)CNS(=O)(=O)c2ccc(C)cc2)cc1,,inactive: -0.354%
S=c1[nH]nc(-c2cc(-c3ccco3)[nH]n2)n1-c1ccccc1,active: 12.6 µM,
CCOC(=O)c1cc(C(=O)Nc2ccc(S(=O)(=O)Nc3ccc(OC)cc3)cc2)nn1C,"inconclusive: 5.01 µM [activator, full curve]",
COc1ccc(Br)cc1/C=N/NC(=O)c1ccc(OC)c(OC)c1,"inconclusive: 35.5 µM [inhibitor, single point]",
C/C(=N\NC(=O)c1ccco1)c1ccc(NC(=O)c2cccs2)cc1,"inconclusive: 35.5 µM [inhibitor, single point]",
CN1CCN(C2CCCCC2NS(=O)(=O)c2ccc(Cl)cc2)CC1 (stereo not given),,inactive: -0.134%
COCc1ccc(C(=O)N2CCCC(Nc3ccc(C(C)C)cc3)C2)o1 (stereo not given),"inconclusive: 5.01 µM [activator, single point]",
O=C(Nc1ccc(Oc2cccnc2)cc1)c1cccc([N+](=O)[O-])c1,"inconclusive: 17.8 µM [activator, partial curve]",
COc1ccc(C)cc1Nc1n[n+](C)c(-c2c3ccccc3cc3ccccc23)s1,"inconclusive: 14.1 µM [inhibitor, partial curve, poor fit]",
Clc1ccccc1-c1nnc2sc(CCc3ccccc3)nn12,"inconclusive: 17.8 µM [inhibitor, single point]",
C#CCNC(=O)C1CCN(c2cc(C)nc(-c3ccccc3)n2)CC1,,inactive: 3.44%
COc1cc(OC)c(N(C)S(=O)(=O)c2cccc(C(=O)NC3=NCCS3)c2)cc1Cl,active: 10 µM,
Cc1[nH]c(=S)sc1Cc1ccc(F)cc1,active: 3.98 µM,
COc1ccc(NC(=O)c2ccc(NC3=NC4CS(=O)(=O)CC4S3)cc2)cc1 (stereo not given),,inactive: -0.984%
Cc1ccc(C(=O)N2CCN(c3ncnc4c(C)csc34)CC2)cc1,"inconclusive: 22.4 µM [activator, single point]",
S=C(NC1CCCC1)N1CCN(c2cccc(Cl)c2)CC1,active: 11.2 µM,
OCCCNc1nc(-c2ccc(Br)cc2)nnc1-c1ccc(Cl)cc1,"inconclusive: 28.2 µM [activator, single point]",

Structure (SMILES),Potency,"activity change, negative = inhibition"
Oc1cc2c(cc1O)[C@@H]1c3ccc(O)c(O)c3OC[C@]1(O)C2,,inactive: -29.2%
Cc1ccc(S(=O)(=O)N/N=C2/CC(c3ccccc3)Oc3ccccc32)cc1 (stereo not given),"inconclusive: 35.5 µM [activator, single point]",
COC(c1ccccc1)c1nnc(CCC(=O)N2CCN(Cc3cccs3)CC2)o1 (stereo not given),"inconclusive: 2.51 µM [activator, full curve, poor fit]",
COc1cccc(-c2ccc3ncnc(NCCc4c[nH]c5ccc(OC)cc45)c3c2)c1,"inconclusive: 12.6 µM [activator, partial curve]",
Cc1ccc(S(=O)(=O)N2C(=S)SCC2(C)C)cc1,"inconclusive: 0.891 µM [inhibitor, single point]",
O=C(NCCc1ccccc1)c1cc(=O)c2ccccc2o1,"inconclusive: 12.6 µM [activator, partial curve, poor fit]",
O=C(Nc1ccc([N+](=O)[O-])cc1)Nc1cnccn1,"inconclusive: 17.8 µM [activator, partial curve]",
N/C(=N\OC(=O)COc1ccc(Cl)cc1Cl)c1cccnc1,"inconclusive: 14.1 µM [activator, single point]",
CSc1ccccc1NC(=O)C1CCCN(S(C)(=O)=O)C1 (stereo not given),,inactive: -3.84%
CCCCNC(=O)N1CCc2ccccc2C1,,inactive: 11.6%
C=CCN1C(=O)C(Cc2ccc(C)cc2)S/C1=N/N=C/c1ccco1 (stereo not given),,inactive: -5.33%
O=C1CC(c2ccccc2Oc2cccc(Cl)c2)C(n2cncn2)C(=O)C1C1NCCc2ccccc21 (stereo not given),,inactive: 1.81%
Cc1cc(-c2ccc(S(=O)(=O)NCc3ccc(F)cc3)cc2)on1,,inactive: -4.67%
CCc1ccc(N(C(=O)CNC(=O)c2ccco2)C(C(=O)NC2CCCC2)c2ccncc2)cc1 (stereo not given),,inactive: 24.5%
COc1cccc(C(=O)Nc2cc(=O)n(C)c(=O)n2C)c1OC,,inactive: -17.8%
Cc1cc(C)nc(/N=C(\N)Nc2ccc(CC(=O)OC(C)C)cc2)n1,"inconclusive: 10 µM [activator, partial curve]",
O=C(Cn1cc([N+](=O)[O-])cn1)N1CCN(Cc2ccc3c(c2)OCO3)CC1,"inconclusive: 14.1 µM [activator, partial curve]",
COCCCn1c(SCC(=O)Nc2ccc(C(=O)OC)cc2)nc2ccccc2c1=O,"inconclusive: 14.1 µM [inhibitor, single point]",
CCCNC(=O)C(=O)N/N=C/c1cccs1,,inactive: 17%
CCOc1cc(CNCCSc2nnnn2C)cc(Br)c1OCc1ccccc1,,inactive: -22.7%
CC(C)Cn1c(=O)c2ccccc2n2c(CCC(=O)NCC3CCCO3)nnc12 (stereo not given),,inactive: 2.08%
O=C(NC(=S)NC1CCN(Cc2ccccc2)CC1)c1ccc(F)cc1,active: 7.08 µM,
Cc1cc(C)nc(-n2nc(C)c(C3(O)C(=O)Nc4ccc(F)cc43)c2N)n1 (stereo not given),"inconclusive: 12.6 µM [inhibitor, single point]",
Cc1ccc(NC(=O)c2cc(S(=O)(=O)NCCc3ccccc3)ccc2F)cc1Cl,"inconclusive: 12.6 µM [activator, single point]",
O=C1C(=O)N(c2nccs2)C(c2ccccc2F)/C1=C(\O)c1ccc2c(c1)OCCO2 (stereo not given),,inactive: 1.08%

# Reference: PubChem BioAssay AID2551 (National Center for Advancing Translational Sciences (NCATS), 2010)
